Assay results taken from the supplement of paper PMC6411743.
± gives the standard deviation of the averaged measurements. The list shows a part of the results, in another mix than the full data.

Protein sequences, listed by entry. Tags and fused reporters are not part of them. Lines headed by an entry give the natural chain unless they say otherwise; changes in a name come on top.
UniProt Q13247: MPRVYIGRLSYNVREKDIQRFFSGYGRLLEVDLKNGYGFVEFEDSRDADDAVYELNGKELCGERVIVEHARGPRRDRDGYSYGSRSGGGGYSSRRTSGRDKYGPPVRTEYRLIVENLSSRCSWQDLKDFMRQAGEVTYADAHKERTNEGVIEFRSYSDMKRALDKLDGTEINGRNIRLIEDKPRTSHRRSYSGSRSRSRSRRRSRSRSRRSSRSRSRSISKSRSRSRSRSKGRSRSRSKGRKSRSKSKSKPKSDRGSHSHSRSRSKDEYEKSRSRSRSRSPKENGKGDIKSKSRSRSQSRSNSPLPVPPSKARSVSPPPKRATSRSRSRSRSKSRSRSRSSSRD
UniProt Q14344, whole entry: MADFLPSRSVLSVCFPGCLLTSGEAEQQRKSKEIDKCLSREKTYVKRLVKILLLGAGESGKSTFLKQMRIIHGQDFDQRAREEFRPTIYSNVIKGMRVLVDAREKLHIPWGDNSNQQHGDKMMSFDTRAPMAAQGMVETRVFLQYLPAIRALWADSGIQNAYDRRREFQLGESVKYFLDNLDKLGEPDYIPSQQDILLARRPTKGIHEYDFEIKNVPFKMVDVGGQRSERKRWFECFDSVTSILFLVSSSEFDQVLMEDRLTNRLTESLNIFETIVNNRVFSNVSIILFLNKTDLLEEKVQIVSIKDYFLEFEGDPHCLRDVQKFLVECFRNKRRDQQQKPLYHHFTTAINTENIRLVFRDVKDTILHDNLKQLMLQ
UniProt Q14191, whole entry: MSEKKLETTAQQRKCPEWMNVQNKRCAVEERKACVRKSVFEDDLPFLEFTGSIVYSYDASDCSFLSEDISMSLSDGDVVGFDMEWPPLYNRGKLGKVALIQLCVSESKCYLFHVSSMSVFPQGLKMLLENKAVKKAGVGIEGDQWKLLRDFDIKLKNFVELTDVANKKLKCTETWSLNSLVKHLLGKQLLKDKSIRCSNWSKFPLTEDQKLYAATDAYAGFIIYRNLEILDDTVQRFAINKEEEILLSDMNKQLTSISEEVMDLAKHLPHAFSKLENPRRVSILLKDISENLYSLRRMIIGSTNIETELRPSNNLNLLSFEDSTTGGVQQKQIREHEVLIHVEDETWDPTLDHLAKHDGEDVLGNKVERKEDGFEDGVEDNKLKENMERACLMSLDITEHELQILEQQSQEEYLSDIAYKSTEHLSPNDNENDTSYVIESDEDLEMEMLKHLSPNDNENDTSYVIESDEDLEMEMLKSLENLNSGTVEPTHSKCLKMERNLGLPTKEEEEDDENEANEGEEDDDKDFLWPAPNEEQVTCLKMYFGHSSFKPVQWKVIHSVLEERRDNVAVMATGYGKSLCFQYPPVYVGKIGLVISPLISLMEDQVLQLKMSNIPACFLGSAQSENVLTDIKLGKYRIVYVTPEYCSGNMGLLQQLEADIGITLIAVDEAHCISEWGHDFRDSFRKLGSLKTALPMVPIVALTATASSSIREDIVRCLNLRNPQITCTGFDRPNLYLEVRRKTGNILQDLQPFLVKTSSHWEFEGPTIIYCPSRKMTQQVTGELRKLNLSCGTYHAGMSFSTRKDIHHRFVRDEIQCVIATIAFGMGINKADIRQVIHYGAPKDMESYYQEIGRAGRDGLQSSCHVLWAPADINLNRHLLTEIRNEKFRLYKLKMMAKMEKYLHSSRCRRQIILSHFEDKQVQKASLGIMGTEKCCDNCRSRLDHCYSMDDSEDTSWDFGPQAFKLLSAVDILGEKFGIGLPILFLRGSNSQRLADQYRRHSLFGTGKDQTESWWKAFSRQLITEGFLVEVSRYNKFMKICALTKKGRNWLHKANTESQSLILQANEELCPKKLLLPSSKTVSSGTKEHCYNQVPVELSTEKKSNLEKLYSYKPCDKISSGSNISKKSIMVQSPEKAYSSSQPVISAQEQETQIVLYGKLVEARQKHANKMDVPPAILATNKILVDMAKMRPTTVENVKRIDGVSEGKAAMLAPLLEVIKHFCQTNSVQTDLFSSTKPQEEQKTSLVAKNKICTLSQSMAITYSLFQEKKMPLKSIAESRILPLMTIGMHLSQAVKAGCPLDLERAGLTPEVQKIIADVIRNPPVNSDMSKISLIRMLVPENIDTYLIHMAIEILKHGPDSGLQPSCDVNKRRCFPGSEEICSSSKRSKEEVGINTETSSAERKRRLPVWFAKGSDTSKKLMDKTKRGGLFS
UniProt Q14739: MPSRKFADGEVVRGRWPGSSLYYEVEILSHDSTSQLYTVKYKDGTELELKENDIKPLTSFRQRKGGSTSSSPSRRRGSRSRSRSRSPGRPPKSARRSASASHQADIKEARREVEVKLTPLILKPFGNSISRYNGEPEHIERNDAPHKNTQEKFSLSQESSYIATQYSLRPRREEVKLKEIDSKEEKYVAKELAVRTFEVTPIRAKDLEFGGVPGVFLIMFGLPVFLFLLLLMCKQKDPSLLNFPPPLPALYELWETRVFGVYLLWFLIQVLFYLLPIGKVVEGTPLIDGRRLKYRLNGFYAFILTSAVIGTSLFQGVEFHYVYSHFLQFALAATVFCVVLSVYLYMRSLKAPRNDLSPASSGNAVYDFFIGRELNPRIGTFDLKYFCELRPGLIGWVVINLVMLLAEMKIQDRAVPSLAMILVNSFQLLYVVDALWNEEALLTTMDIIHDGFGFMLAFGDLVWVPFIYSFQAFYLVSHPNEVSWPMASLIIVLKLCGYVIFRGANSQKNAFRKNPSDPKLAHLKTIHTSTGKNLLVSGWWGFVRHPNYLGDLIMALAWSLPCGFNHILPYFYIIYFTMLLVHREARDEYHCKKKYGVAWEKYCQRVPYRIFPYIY
UniProt Q14642: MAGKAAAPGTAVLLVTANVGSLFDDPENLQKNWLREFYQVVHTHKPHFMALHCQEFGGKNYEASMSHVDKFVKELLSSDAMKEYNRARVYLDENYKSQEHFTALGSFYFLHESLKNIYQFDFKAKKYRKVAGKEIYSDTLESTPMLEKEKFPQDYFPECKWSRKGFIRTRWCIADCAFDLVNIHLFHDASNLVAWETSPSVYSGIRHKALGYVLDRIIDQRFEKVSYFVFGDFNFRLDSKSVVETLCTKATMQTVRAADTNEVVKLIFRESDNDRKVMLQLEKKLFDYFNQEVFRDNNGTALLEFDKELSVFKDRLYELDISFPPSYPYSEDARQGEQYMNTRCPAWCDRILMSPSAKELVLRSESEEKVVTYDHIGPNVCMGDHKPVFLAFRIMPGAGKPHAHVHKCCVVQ
UniProt Q08380: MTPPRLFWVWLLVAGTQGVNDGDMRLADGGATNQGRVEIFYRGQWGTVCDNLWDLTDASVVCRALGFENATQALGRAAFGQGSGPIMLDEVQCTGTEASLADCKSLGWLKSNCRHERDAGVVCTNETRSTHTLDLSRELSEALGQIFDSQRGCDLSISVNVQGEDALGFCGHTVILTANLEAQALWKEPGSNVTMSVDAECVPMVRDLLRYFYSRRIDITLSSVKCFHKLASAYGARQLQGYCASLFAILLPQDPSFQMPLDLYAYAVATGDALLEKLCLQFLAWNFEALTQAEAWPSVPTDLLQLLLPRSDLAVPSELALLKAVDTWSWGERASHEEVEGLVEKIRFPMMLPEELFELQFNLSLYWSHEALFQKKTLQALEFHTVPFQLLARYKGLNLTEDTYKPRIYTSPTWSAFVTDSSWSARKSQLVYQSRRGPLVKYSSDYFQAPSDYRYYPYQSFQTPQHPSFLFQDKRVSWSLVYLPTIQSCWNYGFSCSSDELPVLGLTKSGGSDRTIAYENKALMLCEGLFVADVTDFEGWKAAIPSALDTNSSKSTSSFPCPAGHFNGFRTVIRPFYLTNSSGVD
UniProt Q12834, whole entry: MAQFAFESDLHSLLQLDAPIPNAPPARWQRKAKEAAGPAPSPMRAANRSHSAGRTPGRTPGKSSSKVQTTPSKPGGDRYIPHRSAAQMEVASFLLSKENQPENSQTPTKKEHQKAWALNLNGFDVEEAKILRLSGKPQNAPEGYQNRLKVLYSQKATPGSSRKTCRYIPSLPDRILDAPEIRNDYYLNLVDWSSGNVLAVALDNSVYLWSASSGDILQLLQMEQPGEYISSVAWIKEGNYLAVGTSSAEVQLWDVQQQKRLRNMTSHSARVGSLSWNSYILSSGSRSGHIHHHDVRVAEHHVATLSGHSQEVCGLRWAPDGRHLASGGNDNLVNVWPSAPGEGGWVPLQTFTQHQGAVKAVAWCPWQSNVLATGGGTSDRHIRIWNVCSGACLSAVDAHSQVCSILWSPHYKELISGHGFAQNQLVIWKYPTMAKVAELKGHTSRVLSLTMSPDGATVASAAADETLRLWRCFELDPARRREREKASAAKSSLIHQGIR
UniProt Q13595: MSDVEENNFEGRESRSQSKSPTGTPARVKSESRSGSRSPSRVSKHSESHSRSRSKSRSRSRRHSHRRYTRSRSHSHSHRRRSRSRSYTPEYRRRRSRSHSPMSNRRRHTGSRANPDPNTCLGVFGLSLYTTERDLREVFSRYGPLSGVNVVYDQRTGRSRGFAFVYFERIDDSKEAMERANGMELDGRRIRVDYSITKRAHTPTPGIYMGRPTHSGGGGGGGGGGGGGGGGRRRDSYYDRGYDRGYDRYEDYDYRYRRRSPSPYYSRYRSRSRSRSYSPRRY
UniProt Q13057: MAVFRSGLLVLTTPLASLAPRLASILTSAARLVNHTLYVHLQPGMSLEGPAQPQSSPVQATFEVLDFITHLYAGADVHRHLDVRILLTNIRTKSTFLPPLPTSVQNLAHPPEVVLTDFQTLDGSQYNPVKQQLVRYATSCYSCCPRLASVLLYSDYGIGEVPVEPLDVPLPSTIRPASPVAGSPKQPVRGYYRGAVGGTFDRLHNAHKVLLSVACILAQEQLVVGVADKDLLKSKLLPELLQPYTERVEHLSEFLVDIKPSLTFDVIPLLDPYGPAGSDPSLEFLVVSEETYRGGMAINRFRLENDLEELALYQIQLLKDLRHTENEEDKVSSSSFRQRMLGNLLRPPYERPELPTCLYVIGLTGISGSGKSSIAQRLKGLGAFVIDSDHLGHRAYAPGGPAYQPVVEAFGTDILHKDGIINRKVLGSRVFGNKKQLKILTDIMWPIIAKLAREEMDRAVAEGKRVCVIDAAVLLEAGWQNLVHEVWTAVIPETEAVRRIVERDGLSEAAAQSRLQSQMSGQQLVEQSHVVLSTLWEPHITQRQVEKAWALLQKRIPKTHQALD
UniProt Q14186: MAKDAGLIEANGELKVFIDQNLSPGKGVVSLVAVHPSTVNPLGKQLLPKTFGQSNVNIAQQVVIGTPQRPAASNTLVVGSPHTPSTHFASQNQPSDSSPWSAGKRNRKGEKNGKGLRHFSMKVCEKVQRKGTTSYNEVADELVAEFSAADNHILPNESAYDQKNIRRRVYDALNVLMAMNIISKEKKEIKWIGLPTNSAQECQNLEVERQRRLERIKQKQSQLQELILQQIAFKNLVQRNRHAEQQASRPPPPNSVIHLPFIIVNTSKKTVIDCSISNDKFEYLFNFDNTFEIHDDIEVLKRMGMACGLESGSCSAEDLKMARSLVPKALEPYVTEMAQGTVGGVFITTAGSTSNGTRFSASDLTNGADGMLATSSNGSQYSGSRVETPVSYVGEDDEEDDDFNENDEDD
UniProt Q13303: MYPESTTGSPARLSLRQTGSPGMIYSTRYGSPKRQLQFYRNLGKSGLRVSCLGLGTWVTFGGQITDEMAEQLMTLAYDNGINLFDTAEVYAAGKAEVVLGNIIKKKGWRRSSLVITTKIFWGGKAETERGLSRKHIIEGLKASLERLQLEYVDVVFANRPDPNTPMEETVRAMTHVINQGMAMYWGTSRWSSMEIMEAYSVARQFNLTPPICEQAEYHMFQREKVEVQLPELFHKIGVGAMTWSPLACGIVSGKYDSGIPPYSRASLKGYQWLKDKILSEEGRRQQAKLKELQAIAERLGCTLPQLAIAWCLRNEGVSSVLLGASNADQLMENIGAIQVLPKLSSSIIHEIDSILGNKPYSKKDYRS
UniProt Q10472: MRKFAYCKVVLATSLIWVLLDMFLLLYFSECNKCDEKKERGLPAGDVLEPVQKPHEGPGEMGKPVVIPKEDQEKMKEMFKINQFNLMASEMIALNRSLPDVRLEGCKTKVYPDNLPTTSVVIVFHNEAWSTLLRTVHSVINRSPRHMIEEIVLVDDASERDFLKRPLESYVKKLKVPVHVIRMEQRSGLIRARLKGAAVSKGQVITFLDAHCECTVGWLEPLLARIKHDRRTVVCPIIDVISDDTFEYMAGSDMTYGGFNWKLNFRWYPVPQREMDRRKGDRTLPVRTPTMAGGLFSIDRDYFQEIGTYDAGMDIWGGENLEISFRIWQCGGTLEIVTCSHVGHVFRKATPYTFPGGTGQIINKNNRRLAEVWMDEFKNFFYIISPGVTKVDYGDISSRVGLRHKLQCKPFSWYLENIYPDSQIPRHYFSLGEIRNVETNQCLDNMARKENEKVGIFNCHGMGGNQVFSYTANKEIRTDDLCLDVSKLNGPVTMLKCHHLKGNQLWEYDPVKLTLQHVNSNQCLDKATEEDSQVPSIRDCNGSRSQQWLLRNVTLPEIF

Compound: Nc1ncnc2c1ncn2[C@@H]1O[C@H](COP(=O)(O)OP(=O)(O)NP(=O)(O)O)[C@@H](O)[C@H]1O [adenylyl imidodiphosphate]
Test: NP40-soluble protein abundance relative to vehicle (solubility fold change) (ratio); higher = more soluble protein in presence of AMP-PNP
Method in brief: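 Across three independent experiments, values are fold changes against the detergent-processed vehicle for each replicate, based on vsn-normalised intensities. The samples were Jurkat crude lysate treated with eight concentrations (0.1 to 10 mM) for 10 min at room temperature and then 3 min at 37 °C. Lysate was solubilised with 0.8% NP40 and benzonase, ultracentrifuged, and the supernatant analysed by TMT-labelled LC-MS/MS.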

Target	NP40-soluble protein abundance (concentration: 1mM)	NP40-soluble protein abundance (concentration: 2mM)	NP40-soluble protein abundance (concentration: 4mM)	NP40-soluble protein abundance (concentration: 6mM)	NP40-soluble protein abundance (concentration: 8mM)	NP40-soluble protein abundance (concentration: 10mM)
MGAT5 (UniProt Q09328)	0.991 ± 0.024	1.01 ± 0.018	1.02 ± 0.066	0.982 ± 0.025	0.953 ± 0.036	1.01 ± 0.041
MLEC (UniProt Q14165)	1.02 ± 0.035	0.962 ± 0.073	1.01 ± 0.037	1.03 ± 0.023	1.032 ± 0.009	1.01 ± 0.028
HSPA14 (UniProt Q0VDF9)	1.01 ± 0.046	0.998 ± 0.032	1.01 ± 0.034	1.012 ± 0.0091	1.03 ± 0.059	1.02 ± 0.049
UniProt Q13564 and related entries	1.01 ± 0.033	1.02 ± 0.042	1.01 ± 0.036	0.982 ± 0.015	0.987 ± 0.064	0.997 ± 0.057
UniProt Q15018	1 ± 0.041	1.03 ± 0.026	0.977 ± 0.018	0.958 ± 0.032	0.9313 ± 0.0068	0.949 ± 0.047
BRD3 (UniProt Q15059)	1.08 ± 0.017	1.13 ± 0.082	1.15 ± 0.053	1.16 ± 0.086	1.19 ± 0.069	1.2 ± 0.086
NCBP1 (UniProt Q09161)	1.04 ± 0.035	1.04 ± 0.053	1.06 ± 0.038	1.01 ± 0.035	1.03 ± 0.046	1.06 ± 0.015
UniProt Q13247 and related entries	0.993 ± 0.04	1.01 ± 0.031	0.928 ± 0.053	0.942 ± 0.073	0.901 ± 0.1	0.908 ± 0.12
UniProt Q14596 and related entries	0.981 ± 0.029	1 ± 0.014	0.993 ± 0.017	0.987 ± 0.018	0.988 ± 0.016	0.967 ± 0.01
GAMT (UniProt Q14353)	1.02 ± 0.022	1.01 ± 0.034	1.02 ± 0.032	1 ± 0.03	1.005 ± 0.01	1.01 ± 0.037
UniProt Q13505 and related entries	0.965 ± 0.045	0.918 ± 0.066	0.9801 ± 0.0063	0.98 ± 0.073	1.02 ± 0.055	0.984 ± 0.05
UniProt Q14CX7	1.01 ± 0.022	0.983 ± 0.064	1.02 ± 0.036	1.04 ± 0.053	1.06 ± 0.041	1.07 ± 0.057
GNA13 (UniProt Q14344)	0.956 ± 0.03	0.875 ± 0.13	0.938 ± 0.023	0.908 ± 0.018	0.9221 ± 0.0076	0.8788 ± 0.0061
WRN (UniProt Q14191)	1.07 ± 0.029	1.11 ± 0.016	1.11 ± 0.047	1.09 ± 0.078	1.06 ± 0.043	1.11 ± 0.079
ZNF146 (UniProt Q15072)	0.932 ± 0.029	0.932 ± 0.021	0.862 ± 0.001	0.895 ± 0.009	0.892 ± 0.027	0.9394 ± 0.009
LBR (UniProt Q14739)	0.95 ± 0.039	0.943 ± 0.018	0.951 ± 0.032	0.975 ± 0.031	1.02 ± 0.027	0.9883 ± 0.0059
PDCL (UniProt Q13371)	0.966 ± 0.026	0.973 ± 0.039	0.969 ± 0.056	0.932 ± 0.062	0.938 ± 0.083	0.928 ± 0.082
UniProt Q14142 and related entries	1 ± 0.022	1.02 ± 0.018	1.008 ± 0.0028	1.06 ± 0.028	1.02 ± 0.023	1.04 ± 0.015

Target	NP40-soluble protein abundance (concentration: 1mM)	NP40-soluble protein abundance (concentration: 2mM)	NP40-soluble protein abundance (concentration: 4mM)	NP40-soluble protein abundance (concentration: 6mM)	NP40-soluble protein abundance (concentration: 8mM)	NP40-soluble protein abundance (concentration: 10mM)
GOLGA3 (UniProt Q08378)	1.03 ± 0.05	1.06 ± 0.046	1.02 ± 0.038	0.983 ± 0.068	0.954 ± 0.043	0.989 ± 0.043
UniProt Q14642 and related entries	1.02 ± 0.012	0.9962 ± 0.0061	1 ± 0.04	0.971 ± 0.014	1.0206 ± 0.00092	0.981 ± 0.01
UniProt Q12873 and related entries	1 ± 0.048	1.05 ± 0.076	1.06 ± 0.083	1.14 ± 0.032	1.16 ± 0.061	1.21 ± 0.072
SCARB2 (UniProt Q14108)	0.991 ± 0.058	0.974 ± 0.056	0.987 ± 0.059	1.04 ± 0.11	1.03 ± 0.091	1.01 ± 0.11
MDC1 (UniProt Q14676)	1.13 ± 0.032	1.31 ± 0.086	1.49 ± 0.12	1.86 ± 0.28	2.04 ± 0.41	2.34 ± 0.53
KRR1 (UniProt Q13601)	1.05 ± 0.035	1.1 ± 0.071	1.09 ± 0.011	1.08 ± 0.049	1.06 ± 0.047	1.08 ± 0.024
LGALS3BP (UniProt Q08380)	0.952 ± 0.062	0.9536 ± 0.0087	0.897 ± 0.015	0.875 ± 0.032	0.86 ± 0.027	0.9 ± 0.039
CDC20 (UniProt Q12834)	1.02 ± 0.025	1.007 ± 0.008	0.985 ± 0.012	1.02 ± 0.018	1.021 ± 0.0069	1.03 ± 0.026
UniProt Q13033-2	0.985 ± 0.057	1.01 ± 0.022	0.9743 ± 0.0056	0.986 ± 0.02	0.957 ± 0.029	0.975 ± 0.025
UniProt Q13310-3|Q13310	1.02 ± 0.045	1 ± 0.021	1.02 ± 0.066	1.07 ± 0.052	1.08 ± 0.055	1.09 ± 0.081
TRA2A (UniProt Q13595)	1.02 ± 0.045	0.981 ± 0.051	1 ± 0.057	0.902 ± 0.04	0.861 ± 0.079	0.906 ± 0.082
PDIA5 (UniProt Q14554)	1.01 ± 0.016	1.02 ± 0.023	1.04 ± 0.021	1.04 ± 0.013	1.06 ± 0.02	1.06 ± 0.011
UniProt Q13057 and related entries	0.971 ± 0.021	0.912 ± 0.088	0.993 ± 0.024	1.01 ± 0.063	1.04 ± 0.06	0.994 ± 0.021
TFDP1 (UniProt Q14186)	1.03 ± 0.015	1.03 ± 0.022	1.03 ± 0.012	0.9853 ± 0.0079	1 ± 0.031	1.02 ± 0.021
UniProt Q13303 and related entries	0.956 ± 0.037	0.894 ± 0.051	0.969 ± 0.062	1.03 ± 0.089	1.06 ± 0.058	1.02 ± 0.084
GALNT1 (UniProt Q10472)	0.972 ± 0.035	0.949 ± 0.061	0.961 ± 0.02	0.952 ± 0.011	0.958 ± 0.035	0.9308 ± 0.007
FADD (UniProt Q13158)	1.044 ± 0.0098	1.01 ± 0.018	1.04 ± 0.036	1.02 ± 0.075	1.08 ± 0.021	1.06 ± 0.048
